According to PubChem BioAssay AID493014 (National Center for Advancing Translational Sciences (NCATS), 2011):
This is one part of the list. Shown are side measurements of this screen, not its main read-out; they come without a call. The list favours compounds with an active or inconclusive main result. Potencies come from curve fits of mixed quality, noted in brackets.

Experiment: qHTS Assay to Find Inhibitors of Chronic Active B-Cell Receptor Signaling
Settings: ABC-DLBCL IkBa-CBG/CBR reporter, luminescence ratio (green luciferase fused to IkBa over red control in TMD8 lymphoma cells), 4 h
Outline: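 Compounds up to 46 uM were incubated four hours with TMD8 cells whose green CBG68 luciferase is fused to IkappaBalpha; red CBR luminescence normalised the signal, and concentration-effect curves were fitted to fusion, red and ratio data.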

[1] = measured here: CBR red luminescence, cell number
[2] = measured here: IkBa-CBG green luminescence

## Cc1ccccc1C(=O)NC(=S)NCC(=O)c1ccccc1
[1]
  AC50: 2.82 µM [falling, full curve, poor fit]

## Cc1nc(NC(C)c2ccccc2)c2oc3ccccc3c2n1 (centres undefined)
[1]
  AC50: 8.91 µM [falling, partial curve, poor fit]

## Cc1cccc(C(=O)N[C@H](C(=O)Nc2ccc3c(c2)OCO3)C(C)C)c1
[1]
  AC50: 0.116 µM [rising, full curve, poor fit]

## CCN(C(=O)COn1nnc2ccc(S(=O)(=O)N(C)C)cc21)C1CCS(=O)(=O)C1 (centres undefined)
[1]
  AC50: 0.731 µM [falling, partial curve]

## Cc1ccc(S(=O)(=O)/N=C2/NC(=O)/C(=C/c3ccccc3)S2)cc1
[1]
  AC50: 11.2 µM [rising, single point]

## N#C/C(=C(/O)CSc1nnc(Cc2cccs2)n1C1CCCCC1)c1nc2ccccc2[nH]1
[1]
  AC50: 8.91 µM [falling, partial curve]
[2]
  AC50: 1.26 µM [rising, full curve, poor fit]

## CCOC(=O)C1=CN(Cc2cccc(F)c2)S(=O)(=O)N(C)C1c1ccc2ccccc2c1 (centres undefined)
[1]
  AC50: 20.6 µM [rising, single point]

## CCn1c(SCC(O)c2ccccc2)nnc1-c1ccccc1 (centres undefined)
[1]
  AC50: 14.6 µM [falling, partial curve, poor fit]

## CCNc1nc(SCC(=O)Nc2ccc(Cl)c(Cl)c2)nc(N2CCOCC2)n1
[1]
  AC50: 31.6 µM [falling, single point]
[2]
  AC50: 35.5 µM [rising, partial curve, poor fit]

## COC(=O)Nc1nc2ccc(Br)cc2s1
[1]
  AC50: 1 µM [rising, full curve, poor fit]

## Cc1nc2ccc(NC(=O)Cc3ccc(Br)cc3)cc2s1
[1]
  AC50: 5.62 µM [falling, full curve, poor fit]

## Cc1c(Cl)cccc1NC(=O)CCN1CCCCCC1
[1]
  AC50: 6.51 µM [rising, single point]

## Cc1cnc(NC(=O)CSC(=S)N2CCOCC2)s1
[1]
  AC50: 0.282 µM [falling, full curve, poor fit]

## COc1ccc(C(=O)Cc2cc(OC)c(OC)cc2[N+](=O)[O-])cc1
[1]
  AC50: 3.98 µM [falling, partial curve, poor fit]

## COc1ccc(C(=O)CC(SCC(NC(C)=O)C(=O)O)c2ccc(Cl)cc2)cc1OC (centres undefined)
[1]
  AC50: 0.562 µM [falling, full curve, poor fit]

## N#Cc1c(-c2ccco2)cc(-c2ccccc2)[nH]c1=O
[1]
  AC50: 0.708 µM [falling, full curve, poor fit]

## CCCC(=O)Nc1cccc(C(=O)Nc2nccs2)c1
[1]
  AC50: 12.6 µM [falling, partial curve]

## Cc1cccnc1NC(=S)NC(=O)/C=C/c1ccccc1
[1]
  AC50: 17.8 µM [falling, single point]

## C/C(=N\Nc1nc2ccccc2s1)c1cccs1
[1]
  AC50: 29.1 µM [falling, single point]

## NC(=O)CSc1nc2c(sc3ccccc32)c(=O)n1CCCN1CCOCC1
[1]
  AC50: 31.6 µM [falling, single point]

## Cn1c(CN2CCCC2)nc2cc(NC(=O)c3ccc(Cl)cc3)ccc21
[1]
  AC50: 17.8 µM [falling, single point]

## Cc1ccc(S(=O)(=O)Nc2c(C)n(C)n(-c3ccccc3)c2=O)cc1C(=O)OCC(=O)N1CCCC(C)C1 (centres undefined)
[1]
  AC50: 4.47 µM [rising, full curve, poor fit]

## COc1ccc(-c2c(-c3ccc(OCC(=O)NN)cc3O)n[nH]c2C(F)(F)F)cc1
[1]
  AC50: 11.6 µM [falling, partial curve]

## CCOC(=O)/C(=N\Nc1ccc(C(C)=O)cc1)c1csc(Nc2ccccc2)n1
[1]
  AC50: 7.31 µM [rising, single point]

## Cc1ccc(-n2nnnc2SCC(=O)N2c3ccccc3NC(=O)C2(C)C)cc1
[1]
  AC50: 6.31 µM [rising, single point]

## Cc1cc(C(=O)Nc2ccc(N3CCCCC3)cc2)no1
[1]
  AC50: 7.08 µM [falling, partial curve]

## CC(C)OP(=O)(OC(C)C)C(Nc1ccccc1)c1ccc2c(c1)OCO2 (centres undefined)
[1]
  AC50: 18.4 µM [falling, single point]

## Nc1cc(N)nc(SCC(=O)c2ccccc2)n1
[1]
  AC50: 35.5 µM [falling, single point]

## Cc1csc(=O)n1CCC(=O)OCC(=O)Nc1ccc(S(N)(=O)=O)cc1
[1]
  AC50: 0.366 µM [rising, full curve, poor fit]

## Cc1cc(Cn2nnc(-c3ccc(Br)cc3)n2)cc(C)c1O
[1]
  AC50: 16.4 µM [rising, partial curve, poor fit]

## COc1cccc(/C=N/NC(=O)c2ccc(-c3ccccc3)cc2)c1O
[1]
  AC50: 2.59 µM [falling, partial curve]

## C[C@H](NC(=O)c1nc[nH]c1C(=O)N1CCN(c2ccccc2)CC1)C(=O)OCc1ccccc1
[2]
  AC50: 3.55 µM [rising, full curve, poor fit]

## Cc1cccc(C)c1NC(=S)N(CCN1CCCCCC1)Cc1ccco1
[1]
  AC50: 35.5 µM [falling, single point]

## CCC(=O)NC(=S)Nc1cccc(NC(=O)c2ccc(Cl)cc2Cl)c1
[1]
  AC50: 10 µM [falling, partial curve, poor fit]

## COc1cc(OC)c(C(=O)Nc2ccc(C(=O)c3ccccc3)cc2)cc1OC
[1]
  AC50: 5.01 µM [rising, partial curve, poor fit]

## O=C(Cc1cccs1)N1CCC(c2nc3c(nnn3Cc3ccccc3Cl)c(=O)[nH]2)CC1
[1]
  AC50: 2 µM [falling, full curve, poor fit]

## Cc1ccc2c(c1)N(C(=O)CCC(=O)N1CCC(C(N)=O)CC1)CC(C)O2 (centres undefined)
[1]
  AC50: 0.112 µM [falling, full curve, poor fit]

## Cc1cc2c(cc1S(=O)(=O)N1CC(C)CC(C)C1)OCC(=O)N2 (centres undefined)
[1]
  AC50: 0.501 µM [rising, full curve, poor fit]

## COc1ccc(CNC(=O)CN(C(=O)CCC(=O)Nc2ccccn2)c2ccc(C)cc2)cc1
[1]
  AC50: 22.4 µM [falling, partial curve, poor fit]

## COc1cccc(C2C=C(Nc3ccccc3)C(=O)N2c2ccccc2)c1 (centres undefined)
[1]
  AC50: 16.4 µM [falling, partial curve]

## COc1ccc(C2=CC3=C(Br)C(=O)C(C)(OC(=O)c4ccc(Cl)nc4)C(=O)C3=CO2)cc1 (centres undefined)
[1]
  AC50: 35.5 µM [rising, single point]

## CC(=O)Nc1ccc(Cl)c(-c2nc3ncccc3o2)c1
[1]
  AC50: 11.2 µM [rising, single point]

## Cc1cnc2cc(Cl)ccc2c1SCC(=O)O
[1]
  AC50: 2.82 µM [falling, single point]

## CN(c1ccc(C(=O)Nc2ccccc2Sc2ccccc2)cc1)S(C)(=O)=O
[1]
  AC50: 11.2 µM [falling, single point]

## O=C(NN1C(=O)/C(=C/c2ccc(O)c(O)c2)SC1=S)c1ccccc1
[1]
  AC50: 35.5 µM [rising, single point]

## NC(=O)c1ccccc1NC(=O)c1ccc2c(c1)OCO2
[1]
  AC50: 17.8 µM [falling, single point]

## O=C(Nc1ccc(F)cc1)c1cnc(-c2ccccc2)nc1-c1ccccc1
[1]
  AC50: 3.16 µM [rising, single point]

## Cc1cc(NC(=O)c2cc3n(n2)C(C(F)(F)F)CC(c2ccco2)N3)n(-c2ccccc2)n1 (centres undefined)
[1]
  AC50: 23.1 µM [falling, partial curve, poor fit]

## COc1ccc(-c2nn(-c3ccccc3)cc2C(=O)NC(=S)N2CCOCC2)cc1OC
[1]
  AC50: 29.1 µM [rising, single point]

## CC1=C(C(=O)Nc2ccccc2)C(c2ccc[nH]2)n2ncnc2N1 (centres undefined)
[1]
  AC50: 6.51 µM [rising, single point]

## COc1ccc(C(=O)/C=C/C(=O)N(Cc2ccccc2)C(C(=O)NC2CCCCC2)c2ccncc2)c(O)c1 (centres undefined)
[1]
  AC50: 0.58 µM [falling, full curve, poor fit]

## O=C(Nc1cccc(Oc2ccc3c(c2)C(=O)NC3=O)c1)c1cccs1
[1]
  AC50: 18.4 µM [falling, single point]

## O=C(CCl)N1CCN(S(=O)(=O)c2ccc3c(c2)CCC3)CC1
[1]
  AC50: 9.2 µM [falling, partial curve]

## CN(CC(=O)Nc1ccc(Cl)c(Cl)c1)C1CCCCC1
[1]
  AC50: 15.8 µM [rising, single point]

## CC(C)(C)C(=O)Nc1cccc(-c2nc3ccccc3c(=O)o2)c1
[1]
  AC50: 14.1 µM [falling, partial curve, poor fit]

## CCCN1CCc2c(sc3nc(SC)n(-c4ccccc4)c(=O)c23)C1
[1]
  AC50: 35.5 µM [falling, single point]

## CN1c2ccccc2C(=O)/C(=C\Nc2ccc(F)cc2)S1(=O)=O
[1]
  AC50: 35.5 µM [falling, partial curve, poor fit]

## COc1cccc(NC(=O)c2cc3cccc(OC)c3o/c2=N\O)c1
[1]
  AC50: 1.58 µM [falling, partial curve, poor fit]

## CCOC(=O)C1=C(CC)Nc2ccccc2N=C1NC(=O)c1cccc(S(=O)(=O)N2CCOCC2)c1
[1]
  AC50: 25.9 µM [rising, single point]

## COc1ccc(C(=O)Nc2ccc(F)cc2F)cc1
[1]
  AC50: 11.6 µM [falling, partial curve, poor fit]

## COc1cc(/C=C(\C#N)C(=O)NC(C)C)ccc1OCc1ccc(C(=O)O)cc1
[1]
  AC50: 7.94 µM [falling, partial curve]

## COc1ccc(CN2C[C@H](Cc3ccccc3)[C@@H](CC(=O)Nc3ccccc3)C2=O)cc1
[1]
  AC50: 22.4 µM [falling, single point]
